Article PMC9578707
No constants are given. Whether binding was seen depends on the method and setting.

Sequences of proteins named here, by UniProt entry; tags and fusion partners are left off. Residues count along the entry.
UniProt P10586, residues 30-1263: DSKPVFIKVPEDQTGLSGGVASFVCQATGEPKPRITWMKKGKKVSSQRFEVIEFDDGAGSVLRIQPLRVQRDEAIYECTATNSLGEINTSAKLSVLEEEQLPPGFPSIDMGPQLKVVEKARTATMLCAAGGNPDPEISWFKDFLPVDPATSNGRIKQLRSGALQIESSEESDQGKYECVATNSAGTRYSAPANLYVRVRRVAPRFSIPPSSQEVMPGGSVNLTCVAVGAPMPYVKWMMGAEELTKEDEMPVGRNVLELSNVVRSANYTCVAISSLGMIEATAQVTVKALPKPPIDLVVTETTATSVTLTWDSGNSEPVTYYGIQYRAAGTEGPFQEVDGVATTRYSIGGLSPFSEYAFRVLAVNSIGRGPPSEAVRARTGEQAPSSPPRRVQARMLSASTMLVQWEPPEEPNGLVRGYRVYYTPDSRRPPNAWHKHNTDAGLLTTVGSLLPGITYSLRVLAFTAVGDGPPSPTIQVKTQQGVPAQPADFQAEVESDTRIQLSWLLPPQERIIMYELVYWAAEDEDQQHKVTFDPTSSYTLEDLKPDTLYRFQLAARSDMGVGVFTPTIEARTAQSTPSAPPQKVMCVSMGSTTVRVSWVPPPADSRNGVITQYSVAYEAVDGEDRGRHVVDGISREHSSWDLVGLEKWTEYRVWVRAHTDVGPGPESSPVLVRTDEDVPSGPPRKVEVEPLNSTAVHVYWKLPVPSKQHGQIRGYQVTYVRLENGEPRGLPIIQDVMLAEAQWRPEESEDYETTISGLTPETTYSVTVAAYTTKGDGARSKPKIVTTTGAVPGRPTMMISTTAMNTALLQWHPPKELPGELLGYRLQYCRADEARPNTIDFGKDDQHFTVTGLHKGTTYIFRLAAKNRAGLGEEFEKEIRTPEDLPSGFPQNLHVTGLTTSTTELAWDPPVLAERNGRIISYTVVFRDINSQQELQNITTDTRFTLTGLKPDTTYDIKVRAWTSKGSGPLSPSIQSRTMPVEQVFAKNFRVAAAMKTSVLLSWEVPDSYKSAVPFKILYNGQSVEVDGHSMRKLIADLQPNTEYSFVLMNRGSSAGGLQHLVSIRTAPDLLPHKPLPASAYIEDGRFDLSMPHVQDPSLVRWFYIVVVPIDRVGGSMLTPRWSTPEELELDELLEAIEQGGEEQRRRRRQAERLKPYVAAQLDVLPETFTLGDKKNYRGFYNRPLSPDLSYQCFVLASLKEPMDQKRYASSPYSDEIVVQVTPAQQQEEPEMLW
UniProt P23468, residues 21-1265: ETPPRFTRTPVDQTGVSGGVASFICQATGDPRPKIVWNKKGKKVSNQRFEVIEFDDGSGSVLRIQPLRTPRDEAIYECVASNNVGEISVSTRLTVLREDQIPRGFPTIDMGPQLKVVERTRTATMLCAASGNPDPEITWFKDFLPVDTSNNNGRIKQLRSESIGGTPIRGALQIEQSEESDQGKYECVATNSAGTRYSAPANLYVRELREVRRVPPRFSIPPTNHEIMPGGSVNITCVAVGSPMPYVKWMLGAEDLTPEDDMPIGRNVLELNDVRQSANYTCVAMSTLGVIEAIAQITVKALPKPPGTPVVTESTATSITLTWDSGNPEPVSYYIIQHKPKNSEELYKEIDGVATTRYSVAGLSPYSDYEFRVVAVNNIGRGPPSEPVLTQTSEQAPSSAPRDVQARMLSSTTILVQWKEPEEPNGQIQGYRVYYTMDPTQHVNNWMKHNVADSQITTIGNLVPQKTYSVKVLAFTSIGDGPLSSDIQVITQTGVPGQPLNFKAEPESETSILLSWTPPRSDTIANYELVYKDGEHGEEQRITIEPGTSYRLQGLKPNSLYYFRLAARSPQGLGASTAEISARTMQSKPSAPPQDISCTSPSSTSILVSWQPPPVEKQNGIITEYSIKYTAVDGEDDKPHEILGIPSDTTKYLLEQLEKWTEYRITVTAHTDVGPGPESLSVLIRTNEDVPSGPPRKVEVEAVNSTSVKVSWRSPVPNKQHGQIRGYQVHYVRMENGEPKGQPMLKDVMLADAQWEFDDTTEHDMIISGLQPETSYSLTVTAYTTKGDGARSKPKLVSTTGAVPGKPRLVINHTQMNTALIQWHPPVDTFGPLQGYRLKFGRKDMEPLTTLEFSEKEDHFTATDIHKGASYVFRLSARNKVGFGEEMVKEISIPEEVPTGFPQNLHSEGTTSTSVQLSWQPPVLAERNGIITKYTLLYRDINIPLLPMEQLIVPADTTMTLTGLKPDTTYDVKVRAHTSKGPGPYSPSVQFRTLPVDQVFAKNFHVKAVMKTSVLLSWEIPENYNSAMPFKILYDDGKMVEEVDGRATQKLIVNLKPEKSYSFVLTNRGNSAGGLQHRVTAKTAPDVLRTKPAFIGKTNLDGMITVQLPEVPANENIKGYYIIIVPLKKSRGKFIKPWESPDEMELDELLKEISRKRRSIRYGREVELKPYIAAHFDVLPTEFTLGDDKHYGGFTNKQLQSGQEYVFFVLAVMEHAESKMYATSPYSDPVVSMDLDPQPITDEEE

Assays:
Assay in all cases: SPR; Biacore T100; biotinylated receptor ECD or hit protein captured on a streptavidin chip (~100-200 RU), non-biotinylated secreted ligand as analyte in twofold dilutions; HBS-P+ buffer; 1:1 Langmuir model or equilibrium fit; both purified
PTPRK ECD (human) = target: T1, PTPRK ECD (human) (UniProt Q15262)
T1 sequence (chain, biotin where captured on the streptavidin chip): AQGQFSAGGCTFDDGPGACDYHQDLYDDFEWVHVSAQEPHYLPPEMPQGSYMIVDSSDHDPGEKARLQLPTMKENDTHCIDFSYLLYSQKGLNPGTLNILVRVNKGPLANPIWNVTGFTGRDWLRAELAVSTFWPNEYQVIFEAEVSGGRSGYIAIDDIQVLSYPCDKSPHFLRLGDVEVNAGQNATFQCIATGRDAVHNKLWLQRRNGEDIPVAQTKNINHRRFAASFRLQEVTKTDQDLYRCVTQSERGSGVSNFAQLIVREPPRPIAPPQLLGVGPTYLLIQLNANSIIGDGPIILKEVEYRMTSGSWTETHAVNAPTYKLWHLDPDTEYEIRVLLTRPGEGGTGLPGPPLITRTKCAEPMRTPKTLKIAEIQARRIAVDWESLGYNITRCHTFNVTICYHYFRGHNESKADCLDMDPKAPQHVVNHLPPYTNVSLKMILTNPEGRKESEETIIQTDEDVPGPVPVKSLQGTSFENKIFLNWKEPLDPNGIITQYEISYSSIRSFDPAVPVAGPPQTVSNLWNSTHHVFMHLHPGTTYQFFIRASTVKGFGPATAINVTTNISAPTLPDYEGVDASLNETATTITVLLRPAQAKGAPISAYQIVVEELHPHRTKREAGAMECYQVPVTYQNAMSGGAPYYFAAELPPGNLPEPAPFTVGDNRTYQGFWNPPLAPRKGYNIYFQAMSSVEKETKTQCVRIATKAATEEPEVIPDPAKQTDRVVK

PTPRM ECD (human) = target: T2, PTPRM ECD (human) (UniProt P28827)
T2 sequence (chain, biotin where captured on the streptavidin chip): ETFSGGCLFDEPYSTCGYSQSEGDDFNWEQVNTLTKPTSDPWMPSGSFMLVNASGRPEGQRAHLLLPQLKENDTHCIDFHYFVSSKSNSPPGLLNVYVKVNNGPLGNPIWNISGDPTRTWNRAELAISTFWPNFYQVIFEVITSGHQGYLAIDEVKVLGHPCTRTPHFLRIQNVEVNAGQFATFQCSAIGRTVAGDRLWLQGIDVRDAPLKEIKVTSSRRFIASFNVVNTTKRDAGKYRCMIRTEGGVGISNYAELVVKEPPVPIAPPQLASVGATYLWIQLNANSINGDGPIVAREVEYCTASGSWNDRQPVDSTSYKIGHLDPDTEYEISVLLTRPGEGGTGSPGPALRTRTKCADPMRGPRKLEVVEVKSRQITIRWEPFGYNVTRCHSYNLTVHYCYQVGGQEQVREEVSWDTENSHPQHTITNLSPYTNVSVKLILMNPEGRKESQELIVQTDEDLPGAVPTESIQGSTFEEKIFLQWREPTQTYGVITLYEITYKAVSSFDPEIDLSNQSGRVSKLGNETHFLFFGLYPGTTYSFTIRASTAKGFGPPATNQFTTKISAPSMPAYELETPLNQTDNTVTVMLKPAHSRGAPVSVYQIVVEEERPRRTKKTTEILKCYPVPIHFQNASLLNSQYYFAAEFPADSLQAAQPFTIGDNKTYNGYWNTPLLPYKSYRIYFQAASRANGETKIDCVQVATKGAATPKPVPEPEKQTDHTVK

PTPRF ECD (human) = PTPRF ECD (human) (UniProt P10586)
PTPRD ECD (human) = PTPRD ECD (human) (UniProt P23468)
PTPRT ECD (human) = target: T3, PTPRT ECD (human) (UniProt O14522)
T3 sequence (chain, biotin where captured on the streptavidin chip): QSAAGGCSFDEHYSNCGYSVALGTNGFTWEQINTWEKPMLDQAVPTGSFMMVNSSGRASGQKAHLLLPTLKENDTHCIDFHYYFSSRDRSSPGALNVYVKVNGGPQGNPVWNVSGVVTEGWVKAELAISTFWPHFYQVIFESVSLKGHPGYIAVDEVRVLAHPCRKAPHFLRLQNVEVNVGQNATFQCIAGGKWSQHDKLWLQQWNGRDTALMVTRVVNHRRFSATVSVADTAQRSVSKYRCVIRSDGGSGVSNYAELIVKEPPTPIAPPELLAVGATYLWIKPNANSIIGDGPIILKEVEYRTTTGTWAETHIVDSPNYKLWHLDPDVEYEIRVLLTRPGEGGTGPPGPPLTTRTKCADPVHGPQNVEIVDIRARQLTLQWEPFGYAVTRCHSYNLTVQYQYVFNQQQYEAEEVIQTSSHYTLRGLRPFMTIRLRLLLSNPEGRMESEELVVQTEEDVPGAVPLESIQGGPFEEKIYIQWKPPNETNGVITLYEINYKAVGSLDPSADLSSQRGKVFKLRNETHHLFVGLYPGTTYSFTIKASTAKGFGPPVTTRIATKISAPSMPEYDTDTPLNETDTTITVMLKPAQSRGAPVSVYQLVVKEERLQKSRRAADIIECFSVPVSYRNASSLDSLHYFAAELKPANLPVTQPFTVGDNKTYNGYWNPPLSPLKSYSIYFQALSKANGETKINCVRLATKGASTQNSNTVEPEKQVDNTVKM

Measured: binding

B1: Osteocrin (ligand, UniProt P61366 28-133)
chain: VDVTTTEAFDSGVIDVQSTPTVREEKSATDLTAKLLLLDELVSLENDVIETKKKRSFSGFGSPLDRLSAGSVDHKGKQRKVVDHPKRRFGIPMDRIGRNRLSNSRG
modifications: biotin (biotinylated in vitro with BirA) where used on beads
no binding: all assays above
